Binding data for three molecules are collected here from patent US20160185837A1, “GIP AND GLP-1 RECEPTOR DUAL-AGONISTS FOR THE TREATMENT OF DIABETES” (Medimmune Limited, priority 2013, published 2016).

Results are given in words; binding and its absence hold for the method and conditions named. Binding can be weak; no strength is given.

Test [1] addresses GIPr (Homo sapiens (Human)). Description: phage display selection.
Test [2] addresses GLP-1r (Homo sapiens (Human)). Nature of the test: phage display selection.

With HGEGTFTSDVSSYMESQLVREFIAWLVKG [LVR peptide], the binding result in test [1] and in test [2] was “binds” each time.
Turning to HGEGTFTSDVSSYMEAQSIREFIAWLVKGP [SIR peptide], the binding entry in test [1] and in test [2] was “binds” in each case.
Take HGEGTFTSDVSSYMERQAIDEFIAWLLAG [AID peptide]: the binding entry in test [1] and in test [2] was “binds” throughout.
